# Laboratory results from publication PMC8125995, “In Vitro Antiplasmodial and Cytotoxic Activities of Compounds from the Roots of Eriosema montanum Baker f. (Fabaceae)” (Molecules, 2021).
# Tested on: 3D7 strain of Plasmodium falciparum
# Assay: In vitro antiplasmodial activity (SYBR Green, 48 h)
# Assay type: cell-based
# Conditions: SI = CC50 (THP-1) / IC50 (P. falciparum 3D7)
# Procedure: Continuous in vitro cultures of asexual erythrocyte stages of P. falciparum, chloroquine-sensitive 3D7 strain was maintained according to the procedure of Trager and Jensen. Strains were obtained from ATCC, Bei Resources. The host cells were human red blood cells (A+). […] Compound stock solutions were prepared in DMSO at 10 mg/mL (for an extract) and 1 mg/mL (for an isolated compound). Then, the solution is directly diluted in the medium; each test sample was applied in a series of eight 2-fold dilutions in a 96-well plate, starting with 100 µg/mL and 10 µg/mL for the crude extract and purified compounds, respectively, and tested in triplicate. The effect of compounds on the parasite growth was estimated, after 48 h incubation, by using the SYBR Green, a DNA intercalating compound. Artemisinin (Sigma-Aldrich, Machelen, Belgium), at an initial concentration of 100 ng/mL, was used as positive control in all experiments. The half-maximal inhibitory concentration (IC50) values were calculated from graphs.
compound,measurement,value
"O=c1c(-c2ccc(O)cc2)coc2cc(O)cc(O)c12 [Compound 7, genistein]",SI,15.0
